Experiment [1] concerns the target FUS R244C with C-terminal GFP tag (UniProt P35637). The experiment can be described thus: single-molecule pull-down (SiMPull) with GFP photobleaching step counting; diluted NP40 lysate (1:100-1:10,000 in T50: 10 mM Tris-Cl pH 8.0, 50 mM NaCl) of transfected SH-SY5Y cells flowed over a PEG/neutravidin surface with biotinylated anti-GFP antibody; 488 nm TIRF, room temperature; photobleaching steps counted per spot; 30% dimers subtracted for GFP self-dimerisation; cells without or with 0.4 M sorbitol 4 h (also arsenite) before lysis.

Sequences of proteins named here, by UniProt entry; tags and fusion partners are left off. A change or cut given only in a name is not applied to a line headed by its entry.
UniProt P35637: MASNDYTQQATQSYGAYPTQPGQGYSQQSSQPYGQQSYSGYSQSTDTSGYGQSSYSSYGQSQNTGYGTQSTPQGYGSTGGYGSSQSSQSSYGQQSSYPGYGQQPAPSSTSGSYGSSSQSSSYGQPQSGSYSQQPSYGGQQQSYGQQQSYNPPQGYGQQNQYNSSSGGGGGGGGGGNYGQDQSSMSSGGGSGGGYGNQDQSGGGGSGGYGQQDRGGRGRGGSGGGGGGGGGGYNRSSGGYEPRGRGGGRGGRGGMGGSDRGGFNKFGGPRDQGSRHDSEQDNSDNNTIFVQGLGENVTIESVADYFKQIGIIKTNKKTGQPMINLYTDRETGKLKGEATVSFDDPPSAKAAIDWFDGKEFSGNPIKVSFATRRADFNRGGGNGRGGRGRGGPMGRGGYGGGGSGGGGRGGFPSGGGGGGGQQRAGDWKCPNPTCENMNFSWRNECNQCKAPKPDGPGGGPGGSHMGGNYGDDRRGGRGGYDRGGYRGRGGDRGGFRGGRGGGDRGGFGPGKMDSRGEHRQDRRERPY

For experiment [2], the target named is FUS R244C with N-terminal GFP tag (UniProt P35637). Nature of the experiment: single-molecule pull-down (SiMPull) with GFP photobleaching step counting, before and after a dissolving agent; complexes captured as in SiMPull, imaged, then incubated ~5 min with 10% 1,6-hexanediol, 500 mM NaCl, 1 mg/mL RNase A, 10-1000 nM Kapβ2 or Kapβ2 with RNase A, washed twice with T50 and imaged again; 8 M GdnHCl and 0.1% SDS as denaturing controls (these increased the monomeric population).

Experiment [3] shares this target. Nature of the experiment: single-molecule pull-down (SiMPull) with GFP photobleaching step counting; diluted NP40 lysate (1:100-1:10,000 in T50: 10 mM Tris-Cl pH 8.0, 50 mM NaCl) of transfected SH-SY5Y cells flowed over a PEG/neutravidin surface with biotinylated anti-GFP antibody; 488 nm TIRF, room temperature; photobleaching steps counted per spot; 30% dimers subtracted for GFP self-dimerisation; cells without or with 0.4 M sorbitol 4 h (also arsenite) before lysis.

In experiment [4] the target is FUS P525L with N-terminal GFP tag (UniProt P35637). Nature of the experiment: single-molecule pull-down (SiMPull) with GFP photobleaching step counting, before and after a dissolving agent; complexes captured as in SiMPull, imaged, then incubated ~5 min with 10% 1,6-hexanediol, 500 mM NaCl, 1 mg/mL RNase A, 10-1000 nM Kapβ2 or Kapβ2 with RNase A, washed twice with T50 and imaged again; 8 M GdnHCl and 0.1% SDS as denaturing controls (these increased the monomeric population).

In experiment [5] the target is FUS G156E with C-terminal GFP tag (UniProt P35637). The experiment can be described thus: single-molecule pull-down (SiMPull) with GFP photobleaching step counting; diluted NP40 lysate (1:100-1:10,000 in T50: 10 mM Tris-Cl pH 8.0, 50 mM NaCl) of transfected SH-SY5Y cells flowed over a PEG/neutravidin surface with biotinylated anti-GFP antibody; 488 nm TIRF, room temperature; photobleaching steps counted per spot; 30% dimers subtracted for GFP self-dimerisation; cells without or with 0.4 M sorbitol 4 h (also arsenite) before lysis.

In experiment [6] the target is FUS R216C with N-terminal GFP tag (UniProt P35637). The experiment can be described thus: single-molecule pull-down (SiMPull) with GFP photobleaching step counting, before and after a dissolving agent; complexes captured as in SiMPull, imaged, then incubated ~5 min with 10% 1,6-hexanediol, 500 mM NaCl, 1 mg/mL RNase A, 10-1000 nM Kapβ2 or Kapβ2 with RNase A, washed twice with T50 and imaged again; 8 M GdnHCl and 0.1% SDS as denaturing controls (these increased the monomeric population).

Experiment [7] shares this target. Nature of the experiment: single-molecule pull-down (SiMPull) with GFP photobleaching step counting; diluted NP40 lysate (1:100-1:10,000 in T50: 10 mM Tris-Cl pH 8.0, 50 mM NaCl) of transfected SH-SY5Y cells flowed over a PEG/neutravidin surface with biotinylated anti-GFP antibody; 488 nm TIRF, room temperature; photobleaching steps counted per spot; 30% dimers subtracted for GFP self-dimerisation; cells without or with 0.4 M sorbitol 4 h (also arsenite) before lysis.

Experiment [8] concerns the target FUS G187S with N-terminal GFP tag (UniProt P35637). Nature of the experiment: single-molecule pull-down (SiMPull) with GFP photobleaching step counting, before and after a dissolving agent; complexes captured as in SiMPull, imaged, then incubated ~5 min with 10% 1,6-hexanediol, 500 mM NaCl, 1 mg/mL RNase A, 10-1000 nM Kapβ2 or Kapβ2 with RNase A, washed twice with T50 and imaged again; 8 M GdnHCl and 0.1% SDS as denaturing controls (these increased the monomeric population).

For experiment [9] the target is unchanged. Nature of the experiment: single-molecule pull-down (SiMPull) with GFP photobleaching step counting; diluted NP40 lysate (1:100-1:10,000 in T50: 10 mM Tris-Cl pH 8.0, 50 mM NaCl) of transfected SH-SY5Y cells flowed over a PEG/neutravidin surface with biotinylated anti-GFP antibody; 488 nm TIRF, room temperature; photobleaching steps counted per spot; 30% dimers subtracted for GFP self-dimerisation; cells without or with 0.4 M sorbitol 4 h (also arsenite) before lysis.

Experiment [10] has as its target FUS G156E with N-terminal GFP tag (UniProt P35637). Nature of the experiment: single-molecule pull-down (SiMPull) with GFP photobleaching step counting, before and after a dissolving agent; complexes captured as in SiMPull, imaged, then incubated ~5 min with 10% 1,6-hexanediol, 500 mM NaCl, 1 mg/mL RNase A, 10-1000 nM Kapβ2 or Kapβ2 with RNase A, washed twice with T50 and imaged again; 8 M GdnHCl and 0.1% SDS as denaturing controls (these increased the monomeric population).

Experiment [11] has the same target. Nature of the experiment: single-molecule pull-down (SiMPull) with GFP photobleaching step counting; diluted NP40 lysate (1:100-1:10,000 in T50: 10 mM Tris-Cl pH 8.0, 50 mM NaCl) of transfected SH-SY5Y cells flowed over a PEG/neutravidin surface with biotinylated anti-GFP antibody; 488 nm TIRF, room temperature; photobleaching steps counted per spot; 30% dimers subtracted for GFP self-dimerisation; cells without or with 0.4 M sorbitol 4 h (also arsenite) before lysis.

Experiment [12] has as its target FUS R495X with N-terminal GFP tag (UniProt P35637). The experiment can be described thus: single-molecule pull-down (SiMPull) with GFP photobleaching step counting, before and after a dissolving agent; complexes captured as in SiMPull, imaged, then incubated ~5 min with 10% 1,6-hexanediol, 500 mM NaCl, 1 mg/mL RNase A, 10-1000 nM Kapβ2 or Kapβ2 with RNase A, washed twice with T50 and imaged again; 8 M GdnHCl and 0.1% SDS as denaturing controls (these increased the monomeric population).

These are yes or no findings as the source states them, for the method shown. Binding seen in cells or lysates may run through a third protein. Some results given as binding are weak or reduced against the parent protein; the word gives no strength.

Data on eight substances can be found in paper PMC10139993.

As to “FUS R244C with C-terminal GFP tag (from UniProt P35637 1-526)”, the binding entry in experiment [1] is “binds”. Turning to “FUS R244C with N-terminal GFP tag (from UniProt P35637 1-526)”, the binding entry in experiment [2] and in experiment [3] was “binds” each time.

On to “FUS P525L with N-terminal GFP tag (from UniProt P35637 1-526)”, for which the binding result in experiment [4] is listed as “binds”.

With “FUS G156E with C-terminal GFP tag (from UniProt P35637 1-526)”, the binding result in [5] is on record as “binds”. Consider “FUS R216C with N-terminal GFP tag (from UniProt P35637 1-526)”, for which the binding entry in [6] and in experiment [7] was “binds” each time. With “FUS G187S with N-terminal GFP tag (from UniProt P35637 1-526)”, the binding entry in experiment [8] and in experiment [9] was “binds” each time.

“FUS G156E with N-terminal GFP tag (from UniProt P35637 1-526)”: the binding entry in experiment [10] and in [11] was “binds” each time.

On to “FUS R495X with N-terminal GFP tag (from UniProt P35637 1-494)”, for which the binding entry in [12] is given as “binds”.
